In the data set the target is T1, TFAM (mitochondrial transcription factor A) (UniProt Q00059).
T1 sequence (looked up, limits assumed): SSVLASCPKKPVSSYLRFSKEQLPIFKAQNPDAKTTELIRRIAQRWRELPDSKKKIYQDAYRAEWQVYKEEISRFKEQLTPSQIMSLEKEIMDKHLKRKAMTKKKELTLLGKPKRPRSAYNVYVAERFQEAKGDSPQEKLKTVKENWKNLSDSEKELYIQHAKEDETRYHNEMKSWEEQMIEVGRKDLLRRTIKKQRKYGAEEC
In words: EMSA. The note with it: data not shown, 10 mM Tris-HCl pH 7.5, 10 mM KCl, 1 mM DTT, 1 mM EDTA, 6% glycerol, 3 nM probe, 30 or 75 nM TFAM, 30 min, room temperature, 5% native PAGE, 0.5x TBE, recombinant protein.

Construct, isoform or probe ends are uncertain for at least one entry. At least one verdict was read from the data and is not stated in words by the source. Tags and fusion partners may be left off the protein sequences shown.

As for “TAATAATAATAATTGAATGTCTGCACAG (double strand) [C242T-VAR (J1b, 233-260)]”, under “no significant difference from wild type”, the binding result was “binds”.

Consider “TAATAATAACAATTGAATGTCTGCACAG (double strand) [Wild type 242 (CRS 233-260)]”, for which the binding result (reference for C242T) is “binds”.

(Values after PMC2673036, “Ancient mtDNA Genetic Variants Modulate mtDNA Transcription and Replication”.)
